Results from patent US20230357378A1.
These are yes or no findings as the source states them, for the method shown. For some assays here: A result given as binding can be weak or reduced; the word gives no strength. Tags and fused reporters may be left off the sequences shown.

Key:
FAM19A5-Cκ = experiment: Western blot, 300 ng antigen per well, primary antibody 2 ug/ml, anti-rabbit IgG (Fc specific)-HRP 1:4000
BSA = experiment: Western blot, 300 ng antigen per well, anti-rabbit IgG (Fc specific)-HRP 1:4000

binding (FAM19A5-Cκ): binds
binding (BSA): no binding (tested: 2 ug/ml)
B1: 1-65-scFv-rabbit-Fc-SSS (Fc fusion)
VH: AVTLDESGGGLQTPGGALSLVCKASGFTFSSYQMGWVRQAPGKGLEWVGVINKSGSDTSYGSAVKGRATISRDNGQSTVRLQLNNLRAEDTGTYFCAKGSASYITAATIDAWGHGTEVIVSS
VL: ALTQPSSVSANPGETVKITCSGGGSSGYGYGWYQQKSPSSAPLTVIYWNDKRPSDIPSRFSGSKSGSTHTLTITGVQAEDEAVYFCGNDDYSSDSGYVGVFGAGTTLTVL
